# Laboratory results from paper PMC12548414.
# In all, about 1,600 compounds went through this assay and about 20 (1%) showed an effect of 50% or more. The list shows a part of the results.
# Test system: T1, E. coli pLC1021 (luc-trpAt trans-translation reporter)
# T1 construct: pLC1021 luc-trpAt reporter strain
# Parameters: species or system Escherichia coli pLC1021; luc-trpAt non-stop luciferase reporter; luminescence rises when trans-translation is inhibited; normalized to KKL-35 and DMSO
# Details: reporter signal, KKL-35 = 100%; rise means trans-translation inhibition; 2 h, 20 µM
# Outline: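 Luminescence (560 nm, 10 min after Bright-Glo) reports luciferase that escapes trans-translation tagging, measured after 2 h room-temperature treatment with 20 µM compound. Each plate was scaled between DMSO (negative) and 20 µM KKL-35 (positive) controls. Compounds scoring one standard deviation above the median counted as positive; at least two biological repeats.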
row,SMILES,% activation
1,O=S(=O)(Nc1cc(Sc2cccc3cccnc23)c(O)c2ccccc12)c1ccccc1 [KKL-1539],0%
2,O=C(/C=C/c1cccc(C(F)(F)F)c1)Nc1cccc(Br)c1 [KKL-1494],0%
3,CCOc1cccc(N2C(=O)CC(SC(=N)NN=C(C)c3ccc(Cl)s3)C2=O)c1 (centres unmarked) [KKL-1503],1%
4,COc1ccc(-c2nnc(SCC(=O)Nc3cc(C)on3)o2)cc1 [KKL-0807],0%
5,Cc1nc2c(-c3ccc(Cl)cc3)c(C)nn2c(O)c1Cc1ccccc1 [KKL-0883],0%
6,CCOCCOC(=O)COc1ccc2c(-c3ccccc3)cc(=O)oc2c1 [KKL-1109],3%
7,Cc1ccc(C(=O)NC(=S)N(C)Cc2ccccc2)cc1 [KKL-1452],2%
8,CCOC(=O)C1=C(NC(=O)Nc2ccc(Cl)c(Cl)c2)Nc2ccccc2N=C1CC [KKL-0821],0%
9,c1ccc(-c2nnc(Sc3ccnc(N4CCN(c5ccncc5)CC4)n3)n2CCCN2CCOCC2)nc1 [KKL-1731],4%
10,CC(=O)C1=C(C)NC(SCC(=O)c2ccc(Cl)c(Cl)c2)=C(C#N)C1c1ccco1 (centres unmarked) [KKL-1059],2%
11,O=C(OCC#CCSc1nnc(-c2ccccc2)o1)c1ccco1 [KKL-1631],4%
12,CCOC(=O)COc1ccc(S(=O)(=O)Nc2cccc(Cl)c2C)cc1 [KKL-0774],3%
13,c1cnc(N2CCN(c3nncc(-c4ccc(C5CCCCC5)cc4)n3)CC2)cn1 [KKL-0667],0%
14,C/C=C/c1ccc(OCC(=O)OCc2csc(Nc3ccc(C)cc3)n2)c(OC)c1 [KKL-0820],0%
15,CN1CCC(O)(c2cccs2)C(C(=O)c2cccs2)C1 (centres unmarked) [KKL-0578],3%
16,CC(=NNc1nc(C)c(C)s1)c1ccc(Br)cc1 [KKL-0422],0%
17,CCCCc1ccc(NC(=O)c2cc3cc(Br)cc(OC)c3oc2=O)cc1 [KKL-1446],8%
18,Cc1cccc(NC(=O)c2ccc([N+](=O)[O-])o2)c1 [KKL-1080],0%
19,CSc1ncc(C(=O)N2CCc3c([nH]c4ccc(Cl)cc34)C2)cn1 [KKL-0555],0%
20,Cc1ccc(C(=O)Nc2ccc([N+](=O)[O-])cc2C)cc1I [KKL-1273],0%
21,Cc1oc(-c2ccc3ccccc3c2)nc1CN1CCN(c2cnccn2)CC1 [KKL-0659],0%
22,O=C(CN1CCN(Cc2ccccc2)CC1)Nc1ccc([N+](=O)[O-])cc1C(=O)c1ccccc1 [KKL-1480],0%

# 2 entries drawn at random from the list so far, as already listed:
row,SMILES,% activation
21,Cc1oc(-c2ccc3ccccc3c2)nc1CN1CCN(c2cnccn2)CC1 [KKL-0659],0%
2,O=C(/C=C/c1cccc(C(F)(F)F)c1)Nc1cccc(Br)c1 [KKL-1494],0%

# Additional structures

row,SMILES,% activation
1,N#Cc1ccc(/C=C/C(=O)c2cccnc2)cc1 [KKL-0392],0%
2,COc1ccc(OCC(O)Cn2c(=N)n(CCN3CCCCC3)c3ccccc32)cc1 (centres unmarked) [KKL-1200],4%
3,Cc1ccc(NC(=O)c2cc3cc(Cl)cc(Cl)c3oc2=O)c(C)c1 [KKL-1505],7%
4,c1ccc(N2CCN(c3nc(-c4ccccn4)nc4ccccc34)CC2)cc1 [KKL-0375],0%
5,Cc1cc2ncn(Cc3ccc(C(C)C)cc3)c2cc1C [KKL-1584],0%
6,Cc1ccc(-n2cc(CN(C)Cc3nccs3)c(-c3cccc(C)c3)n2)cc1 [KKL-0522],8%
7,O=C(Nc1nnc(C2CCCCC2)s1)c1sc2ccccc2c1Cl [KKL-1507],1%
8,COC(=O)CCCC(=O)N1CCC(C(=O)Nc2ccc(-c3nc4ccccc4o3)cc2)CC1 [KKL-1160],0%
9,OC(COc1ccccc1Cl)CN1CCN(C(c2ccccc2)c2ccccc2)CC1 (centres unmarked) [KKL-0920],0%
10,N#Cc1cc(C(F)(F)F)c2nc(C(=O)NCc3cccs3)c(Cl)n2c1 [KKL-1827],1%
11,CCSc1nnc(NC(=O)c2ccccn2)s1 [KKL-0948],0%
12,COc1ccc(-c2cc(NC(=O)c3cnc(SC)nc3)n(C)n2)cc1 [KKL-0687],0%
13,COc1ccccc1CN1CCCCC1C(=O)Nc1ccc(-n2cccn2)cc1 (centres unmarked) [KKL-0494],3%
14,CCOC(=O)COc1ccc(S(=O)(=O)N2CCC(C)CC2)cc1 [KKL-1457],0%
15,COc1ccc2nc(C)cc(OCC(=O)Nc3ccccc3OC)c2c1 [KKL-1843],3%
16,Cc1ccc(OCCN2CCN(c3nc(NCc4ccccc4)c4ccccc4n3)CC2)cc1 [KKL-1415],0%
17,COc1ccc(-c2cc(NC(=O)c3ccc(F)cc3Cl)ccc2OC)cc1 [KKL-1837],0%
18,CC(=O)n1cc(N(C(=O)CCl)c2ccccc2)c2ccccc21 [KKL-0370],0%
19,CCOc1ccc(NCCC(=O)c2cccs2)cc1 [KKL-1384],0%
20,CN(C)C(S)=Nc1nc2ccccc2s1 [KKL-0288],2%
21,Oc1cccc2ccc(/C=C/c3cccs3)nc12 [KKL-1069],45%
22,CCOC(=O)COc1ccc2c(=O)c(-c3ccccc3OC)coc2c1 [KKL-1077],1%

row,SMILES,% activation
1,O=[N+]([O-])c1ccc(-c2[nH]c(-c3cccc(F)c3)nc2-c2ccccc2)cc1 [KKL-0750],0%
2,O=C(N[C@@H]1CN(C(=O)Nc2ccc(OC(F)(F)F)cc2)CCC[C@H]1O)c1ccc(OCCN2CCCC2)cc1 [KKL-0336],0%
3,CCN(CC)C(=S)NC(=O)c1ccc(Cl)cc1 [KKL-1447],20%
4,Cc1ccc(C(=O)NCCC2=CCCCC2)cc1Br [KKL-1393],0%
5,CCC(Sc1nc2ccccc2o1)C(=O)Nc1nccs1 (centres unmarked) [KKL-1824],3%
6,CCCn1nc(C)c(-c2cc(C(=O)Nc3ccc(CN4CCCCCC4)cc3)[nH]n2)c1C [KKL-0334],0%
7,Cc1nc2ccccn2c1C(=O)NCc1ccc2c(c1)OCO2 [KKL-1647],1%
8,NCC(c1cccs1)S(=O)(=O)c1ccccc1 (centres unmarked) [KKL-1721],0%
9,O=C(Nc1ccco1)N1CCN(Cc2cccs2)CC1 [KKL-1841],1%
10,COC(=O)CN1C(c2ccc(OC)cc2)=Nc2ccc(Cl)cc2C1c1ccccc1 (centres unmarked) [KKL-0850],0%
11,CCOC(=O)N1CCN(C(=O)CSc2nnc(-c3cc(OC)cc(OC)c3)o2)CC1 [KKL-1123],0%
12,CCn1cc(C(=O)NCc2cccc(F)c2)c(=O)c2cc(F)c(N3CCN(C(=O)c4ccco4)CC3)cc21 [KKL-0876],8%
13,CC(C)(C)NC(=O)c1cc2cc([N+](=O)[O-])ccc2oc1=O [KKL-1320],0%
14,CN1CCN(c2ccc(NC(=S)NC(=O)c3ccc(-c4cccc(Cl)c4)o3)cc2)CC1 [KKL-0357],18%
15,Cc1ccc(NC(=O)N2CCC(c3nc(O)c4nnn(Cc5cccc(Cl)c5)c4n3)CC2)cc1 [KKL-1618],0%
16,CCn1cc(C(=O)O)c(=O)c2cc(F)c(N3CCN(C(S)=Nc4cc(C(F)(F)F)ccc4Cl)CC3)cc21 [KKL-1476],5%
17,O=C(/C=C/c1ccc(Cl)cc1Cl)c1cccnc1 [KKL-0383],0%
18,c1cn(CCCNc2nncc(-c3ccc(C4CCCCC4)cc3)n2)cn1 [KKL-1171],8%
19,Cc1ccc2occ(CN(CCCn3ccnc3)Cc3ccccc3Cl)c(=O)c2c1 [KKL-1038],1%
20,Cc1cc(OCCCn2ccnc2)ccc1Cl [KKL-1063],5%
21,Cc1ccc(S/C=C\C(=O)c2ccccc2)cc1 [KKL-0963],0%
22,Cc1ccc2cc(C(c3nnnn3C(C)(C)C)N3CCN(c4cccc(C)c4C)CC3)c(O)nc2c1 (centres unmarked) [KKL-0698],0%

# Of the compounds above, 10 have an aryl thioether with sulfur outside any ring.
row,SMILES,% activation
1,O=S(=O)(Nc1cc(Sc2cccc3cccnc23)c(O)c2ccccc12)c1ccccc1 [KKL-1539],0%
4,COc1ccc(-c2nnc(SCC(=O)Nc3cc(C)on3)o2)cc1 [KKL-0807],0%
9,c1ccc(-c2nnc(Sc3ccnc(N4CCN(c5ccncc5)CC4)n3)n2CCCN2CCOCC2)nc1 [KKL-1731],4%
11,O=C(OCC#CCSc1nnc(-c2ccccc2)o1)c1ccco1 [KKL-1631],4%
19,CSc1ncc(C(=O)N2CCc3c([nH]c4ccc(Cl)cc34)C2)cn1 [KKL-0555],0%
11,CCSc1nnc(NC(=O)c2ccccn2)s1 [KKL-0948],0%
12,COc1ccc(-c2cc(NC(=O)c3cnc(SC)nc3)n(C)n2)cc1 [KKL-0687],0%
5,CCC(Sc1nc2ccccc2o1)C(=O)Nc1nccs1 (centres unmarked) [KKL-1824],3%
11,CCOC(=O)N1CCN(C(=O)CSc2nnc(-c3cc(OC)cc(OC)c3)o2)CC1 [KKL-1123],0%
21,Cc1ccc(S/C=C\C(=O)c2ccccc2)cc1 [KKL-0963],0%

# Additional records

row,SMILES,% activation
1,CC(=O)O[C@H]1CC2C(COC(=O)CC(C)C)=CO[C@@H](OC(=O)CC(C)C)C2[C@@]12CO2 (some centres unmarked) [KKL-0301],1%
2,CCCC(=O)N1c2ccc(C(O)CN3CCc4[nH]c5c(C)cccc5c4C3)cc2CC1C (centres unmarked) [KKL-1196],0%
3,Oc1ccc(Br)cc1-c1nc(-c2cccs2)c(-c2cccs2)[nH]1 [KKL-1281],6%
4,CCOC(=O)C1=C(C)N(c2ccc(Br)cc2)C(=O)C1 [KKL-0854],0%
5,O=C(CCNc1cccc(Cl)c1)c1ccco1 [KKL-1395],0%
6,Cc1ccc(-n2cc(CNCCn3nc(C)cc3C)c(-c3ccc(F)cc3)n2)cc1 [KKL-1132],2%
7,O=C(Oc1ccc(Cl)cc1)c1ccc(N2CCOCC2)c([N+](=O)[O-])c1 [KKL-0943],0%
8,CCn1c(CN2CCC3(CC2)Nc2cc(OC)ccc2-n2cccc23)nc2ccccc21 [KKL-1235],6%
9,CC12CCC(C(=O)Oc3cccc4cccnc34)(CC1=O)C2(C)C (centres unmarked) [KKL-1043],6%
10,O=C(Nc1ncnc2sc3c(c12)CCCC3)c1ccc(F)cc1 [KKL-1368],0%
11,Cc1c(C(=O)Oc2cccc3cccnc23)cccc1[N+](=O)[O-] [KKL-0952],8%
12,CN(Cc1ccccc1)C(=S)NC(=O)c1cccs1 [KKL-1440],17%
13,O=C(NC(=S)N1CCN(C/C=C/c2ccccc2)CC1)c1ccc(Cl)cc1 [KKL-0599],33%
14,O=C(NC(=S)N1CCCCCC1)c1ccc([N+](=O)[O-])cc1 [KKL-1266],18%
15,CCOC(=O)COc1ccc(-c2ccc(C)cc2)cc1 [KKL-1287],0%
16,COc1ccccc1C1(O)CCN(Cc2cnn(-c3ccc(C)cc3)c2)CC1 [KKL-0553],7%
17,Cc1ccc(C)c(N=Nc2nc3ccccc3n2C)c1 [KKL-0971],0%
18,CCc1ccc(Oc2coc3cc(OC(C)C(=O)OC)ccc3c2=O)cc1 (centres unmarked) [KKL-0739],3%
19,CC(C)(C)C(=O)NC(=S)NNC(=O)C(c1ccccc1)c1ccccc1 [KKL-1073],16%
20,Cn1c(COc2cccc3ccccc23)nnc1SCC(=O)OC1CCCCC1 [KKL-1623],1%
